These are yes or no findings as the source states them, for the method shown. In cells and extracts the contact can be indirect. Some binding calls cover weakened binding; strength is not graded here.
Experiments:
[1] = molecular target: FOXO3-FLAG (Forkhead box O3, from pCMV6-FOXO3::MYC-DDK) (UniProt O43524); assay: co-IP; HEK293T cells transfected with both tagged proteins, treated with DMOG (1 mM) or MG132 (12,5 μM); lysis buffer 100 mM NaCl, 20 mM tris-HCl pH 7.4, 5 mM MgCl2, 0.5% Nonidet P-40; anti-FLAG magnetic beads at 4°C overnight; Western blot with anti-V5 and anti-FLAG
[2] = molecular target: P426A/P437A mutant (2P-A) FOXO3-FLAG (from pCMV6-FOXO3(P426A/P437A)::MYC-DDK) (UniProt O43524); assay: as above
[3] = molecular target: P426A/P437A mutant (2P-A) FOXO3-FLAG (from pCMV6-FOXO3(P426A/P437A)::MYC-DDK) (UniProt O43524); assay: co-IP; as a1, but HEK293T cells without DMOG; anti-FLAG magnetic beads at 4°C overnight; Western blot with anti-V5 and anti-FLAG

Chains of the proteins cited; added tags and fusions are not shown. Lines headed by an entry give the natural chain unless they say otherwise; changes in a name come on top.
UniProt O43524: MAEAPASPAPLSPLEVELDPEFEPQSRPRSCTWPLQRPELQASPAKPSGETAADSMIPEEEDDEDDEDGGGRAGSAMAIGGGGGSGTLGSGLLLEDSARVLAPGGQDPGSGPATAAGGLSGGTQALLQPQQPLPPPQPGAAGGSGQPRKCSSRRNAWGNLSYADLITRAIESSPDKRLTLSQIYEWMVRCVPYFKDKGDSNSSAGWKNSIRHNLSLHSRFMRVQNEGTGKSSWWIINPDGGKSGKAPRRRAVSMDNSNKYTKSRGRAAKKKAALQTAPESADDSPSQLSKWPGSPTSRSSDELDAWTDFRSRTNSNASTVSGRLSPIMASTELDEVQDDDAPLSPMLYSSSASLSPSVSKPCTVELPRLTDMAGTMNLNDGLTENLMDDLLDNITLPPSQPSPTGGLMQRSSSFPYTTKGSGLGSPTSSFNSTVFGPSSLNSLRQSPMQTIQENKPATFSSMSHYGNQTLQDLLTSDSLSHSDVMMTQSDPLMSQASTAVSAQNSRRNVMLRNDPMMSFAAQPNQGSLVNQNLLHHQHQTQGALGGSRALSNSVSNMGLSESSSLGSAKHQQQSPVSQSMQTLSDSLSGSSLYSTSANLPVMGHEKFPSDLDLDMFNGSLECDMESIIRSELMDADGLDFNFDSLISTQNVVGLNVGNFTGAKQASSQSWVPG
UniProt Q9H6Z9: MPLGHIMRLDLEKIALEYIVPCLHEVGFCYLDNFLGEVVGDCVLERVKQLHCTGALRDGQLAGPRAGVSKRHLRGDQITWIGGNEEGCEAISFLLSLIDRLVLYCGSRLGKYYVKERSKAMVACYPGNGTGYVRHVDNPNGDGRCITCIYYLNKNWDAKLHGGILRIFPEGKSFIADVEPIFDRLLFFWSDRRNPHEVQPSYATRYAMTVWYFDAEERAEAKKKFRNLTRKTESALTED

binding [1]: binds
binding [2]: binds
Substance: PHD3-V5 (HIF prolyl hydroxylase 3, from pCMV6-PHD3::V5) (from UniProt Q9H6Z9 1-239) (enzyme)
binding [3]: no binding (condition: cells without DMOG)
